Values are relative to the signal before dosing, not to a vehicle control; the signal also falls without drug.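 Labels refer to human fibroblasts, largely primary: uterine (C12385, HUF), lung (H6013), bone (Hs27A), adrenal (HADF), skin (WS1), plus mammary HMF and breast cancer-associated Hs343T. Cancer lines are basal-like or mesenchymal-like triple-negative breast cancer. The paper counts as hits responses shifting over 3x the replicate standard deviation. The tissue of the other fibroblasts is not given here.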
Tested on: MDAMB468
Assay: relative JC-1 red fluorescence (viability) vs pre-drug, coculture with fibroblast (fraction); higher = more viable cancer cells
Procedure: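 JC-1 labelled TNBC cells cocultured 1:1 (1,500 cells each) with CellTrace Violet stained primary or stromal fibroblasts in 384-well plates in FluoroBrite medium, treated with one of 42 anticancer drugs at 0.1, 1, 10 or 100 uM. JC-1 red fluorescence (mitochondrial integrity in cancer cells only) was read by plate reader every 8 h for 72 h. Values are normalised to each well's pre-drug value. The stock of one drug was tenfold lower, so its dose labels may be too high.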

CN(Cc1cnc2nc(N)nc(N)c2n1)c1ccc(C(=O)N[C@@H](CCC(=O)O)C(=O)O)cc1 [Methotrexate]
relative JC-1 red fluorescence
Details	8 h	16 h	24 h	32 h	40 h	48 h	56 h	64 h	72 h
0.1 µM, coculture fibroblast: C12385	0.891	0.81	0.779	0.732	0.6825	0.677	0.628	0.615	0.616
0.1 µM, coculture fibroblast: H6013	0.898	0.838	0.792	0.7774	0.742	0.75431	0.7292	0.729	0.68
0.1 µM, coculture fibroblast: H6019	0.806	0.793	0.783	0.735	0.701	0.682	0.638	0.61	0.585
0.1 µM, coculture fibroblast: H6076	0.8	0.863	0.867	0.8784	0.76	0.852	0.812	0.796	0.817
0.1 µM, coculture fibroblast: H6231	0.851	0.857	0.9157	0.8594	0.818	0.7892	0.725	0.686	0.663
0.1 µM, coculture fibroblast: HADF	0.895	0.827	0.7659	0.755	0.71	0.706	0.653	0.649	0.6
0.1 µM, coculture fibroblast: HCFa	0.8942	0.847	0.814	0.788	0.727	0.723	0.671	0.63	0.579
0.1 µM, coculture fibroblast: HCPF	0.895	0.982	0.905	0.878	0.817	0.79	0.731	0.714	0.693
0.1 µM, coculture fibroblast: HHSteC	0.8784	0.852	0.813	0.782	0.751	0.745	0.681	0.645	0.584
0.1 µM, coculture fibroblast: HMF	0.861	0.9751	0.904	0.87	0.807	0.783	0.737	0.711	0.693
0.1 µM, coculture fibroblast: HPFa	0.955	0.891	0.844	0.802	0.761	0.759	0.693	0.679	0.625
0.1 µM, coculture fibroblast: HUF	0.9065	0.838	0.805	0.7494	0.695	0.668	0.615	0.5841	0.55698
0.1 µM, coculture fibroblast: Hs5	0.853	0.916	0.834	0.876	0.889	0.865	0.822	0.785	0.821
0.1 µM, coculture fibroblast: Hs27A	0.914	0.875	0.838	0.827	0.742	0.738	0.692	0.682	0.656
0.1 µM, coculture fibroblast: Hs343T	0.895	0.9595	0.898	0.8543	0.777	0.7407	0.6923	0.6748	0.653
0.1 µM, coculture fibroblast: WS1	0.882	0.8103	0.7703	0.718	0.658	0.623	0.587	0.564	0.56
1 µM, coculture fibroblast: C12385	0.919	0.816	0.822	0.79	0.752	0.744	0.708	0.699	0.693
1 µM, coculture fibroblast: H6013	0.9018	0.8535	0.831	0.8283	0.8209	0.845	0.831	0.823	0.757
1 µM, coculture fibroblast: H6019	0.7884	0.7444	0.702	0.641	0.593	0.575	0.525	0.494	0.471
1 µM, coculture fibroblast: H6076	0.9037	0.887	0.8421	0.8248	0.7597	0.741	0.697	0.662	0.717
1 µM, coculture fibroblast: H6231	0.8515	0.934	0.838	0.82	0.766	0.738	0.678	0.65	0.631
1 µM, coculture fibroblast: HADF	0.9289	0.842	0.787	0.7668	0.7	0.686	0.641	0.629	0.581
1 µM, coculture fibroblast: HCFa	0.883	0.8226	0.7656	0.737	0.669	0.657	0.599	0.56902	0.5082
1 µM, coculture fibroblast: HCPF	0.884	0.916	0.829	0.798	0.731	0.698	0.655	0.637	0.628
1 µM, coculture fibroblast: HHSteC	0.909	0.8519	0.804	0.765	0.732	0.72	0.665	0.632	0.576
1 µM, coculture fibroblast: HMF	0.876	0.926	0.851	0.812	0.746	0.71866	0.669	0.648	0.62
1 µM, coculture fibroblast: HPFa	0.951	0.861	0.816	0.7673	0.715	0.707	0.643	0.6184	0.5593
1 µM, coculture fibroblast: HUF	0.918	0.8274	0.776	0.7056	0.6599	0.631	0.5853	0.5703	0.5546
1 µM, coculture fibroblast: Hs5	0.852	0.934	0.893	0.854	0.781	0.736	0.665	0.6273	0.644
1 µM, coculture fibroblast: Hs27A	0.865	0.8016	0.735	0.725	0.668	0.663	0.625	0.608	0.57
1 µM, coculture fibroblast: Hs343T	0.873	0.897	0.8249	0.793	0.703	0.672	0.613	0.59	0.565
1 µM, coculture fibroblast: WS1	0.897	0.7981	0.732	0.655	0.609	0.576	0.546	0.513	0.502

Source: the supplement of paper PMC6078165
